Results from one PubChem assay

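A cell line overexpressing EP4 prostanoid receptors, stimulated with a low (about EC15) PGE2 dose; cAMP read by HTRF FRET after a short room-temperature incubation. Compounds were tested at 20 µM final. A low (about EC15) PGE2 dose was present. Percent cAMP induction as a fraction of the 1 µM PGE2 response, averaged over three replicates; a higher value means more cAMP.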

Values are in %. Common to all entries: measured here: EP4 receptor counter-screen. This is a side read-out of the assay, for part of the compounds, not drawn at random.

| # | compound | condition | cAMP induction (%) |
|---|---|---|---|
| 1 | `O=C1/C(=C/c2cccnc2)SC(=NCc2ccccc2)N1Cc1ccccc1` | percent of 1 uM PGE2 response; plus low (about EC15) PGE2 agonist | -7.66 |
| 2 | `CCOC(=O)c1cc(CC)sc1NC(=O)c1ccc2c(c1)OCCO2` | percent of 1 uM PGE2 response; plus low (about EC15) PGE2 agonist | 9.457 |
| 3 | `CC(C)N(CCNC(=O)c1oc(=O)c2ccccc2c1-c1ccccc1)Cc1ccco1` | percent of 1 uM PGE2 response; plus low (about EC15) PGE2 agonist | 1.15 |
| 4 | `CNc1oc(-c2ccc(Cl)cc2)nc1P(=O)(c1ccccc1)c1ccccc1` | percent of 1 uM PGE2 response; plus low (about EC15) PGE2 agonist | -2.123 |
| 5 | `CCOC(=O)C1=NN(c2ccc(C)cc2)C2(S1)SC(C(C)=O)=C(C)N2c1ccccc1` (configuration not stated) | percent of 1 uM PGE2 response; plus low (about EC15) PGE2 agonist | -4.693 |
| 6 | `O=C(CSc1nc2cc(Cl)ccc2s1)N1CCCc2ccccc21` | percent of 1 uM PGE2 response; plus low (about EC15) PGE2 agonist | -14.15 |
| 7 | `CC/C(=C\C1CCCCC1)C(NP(=O)(c1ccccc1)c1ccccc1)c1ccccc1` (configuration not stated) | percent of 1 uM PGE2 response; plus low (about EC15) PGE2 agonist | -19.41 |
| 8 | `CC(C)n1cc(-c2ccc(Cl)cc2)cc(C#N)c1=O` | percent of 1 uM PGE2 response; plus low (about EC15) PGE2 agonist | -15.36 |
| 9 | `CC(C)C1COC(c2cccn2Cc2ccccc2Cl)=N1` (configuration not stated) | percent of 1 uM PGE2 response; plus low (about EC15) PGE2 agonist | -5.983 |
| 10 | `O=S(=O)(c1cccc(C(F)(F)F)c1)N1c2ccccc2-n2cccc2[C@H]1c1cccnc1` | percent of 1 uM PGE2 response; plus low (about EC15) PGE2 agonist | -2.437 |
| 11 | `CCOC(=O)CSc1nc(-c2ccccc2)nc2ccccc12` | percent of 1 uM PGE2 response; plus low (about EC15) PGE2 agonist | 1.617 |
| 12 | `O=C(O)CCSc1ccc2ccccc2n1` | percent of 1 uM PGE2 response; plus low (about EC15) PGE2 agonist | 70.28 |
| 13 | `O=S(=O)(Nc1ccccc1N1CCCCC1)c1ccc(Cl)s1` | percent of 1 uM PGE2 response; plus low (about EC15) PGE2 agonist | 4.763 |
| 14 | `Cc1cc2cc(CN(Cc3nnnn3C3CCCCC3)CC3CCCO3)c(=O)[nH]c2cc1C` (configuration not stated) | percent of 1 uM PGE2 response; plus low (about EC15) PGE2 agonist | -10.27 |
| 15 | `O=c1c2ccccc2c2ccccc2c(=O)n1Cc1ccco1` | percent of 1 uM PGE2 response; plus low (about EC15) PGE2 agonist | -1.227 |
| 16 | `Cc1noc(C)c1CSc1ncnc2sc(C)c(C)c12` | percent of 1 uM PGE2 response; plus low (about EC15) PGE2 agonist | -6.5 |
| 17 | `C/C(Cl)=C/Cn1c(SC(C)C)nc2c1c(=O)[nH]c(=O)n2C` | percent of 1 uM PGE2 response; plus low (about EC15) PGE2 agonist | -14.32 |
| 18 | `Cc1cc(NC(=O)c2cc(-c3ccncc3)nc3c(C)cccc23)no1` | percent of 1 uM PGE2 response; plus low (about EC15) PGE2 agonist | -8.587 |

Once more, the final 2:

| compound | condition | cAMP induction (%) |
|---|---|---|
| `C/C(Cl)=C/Cn1c(SC(C)C)nc2c1c(=O)[nH]c(=O)n2C` | percent of 1 uM PGE2 response; plus low (about EC15) PGE2 agonist | -14.32 |
| `Cc1cc(NC(=O)c2cc(-c3ccncc3)nc3c(C)cccc23)no1` | percent of 1 uM PGE2 response; plus low (about EC15) PGE2 agonist | -8.587 |

Data taken from PubChem BioAssay AID1080, deposited by Emory University Molecular Libraries Screening Center (2008).